These results are taken from article doi:10.1101/2022.02.03.479028.

By UniProt entry, the sequences of proteins in these tests, tags left out.
UniProt Q6P1M0: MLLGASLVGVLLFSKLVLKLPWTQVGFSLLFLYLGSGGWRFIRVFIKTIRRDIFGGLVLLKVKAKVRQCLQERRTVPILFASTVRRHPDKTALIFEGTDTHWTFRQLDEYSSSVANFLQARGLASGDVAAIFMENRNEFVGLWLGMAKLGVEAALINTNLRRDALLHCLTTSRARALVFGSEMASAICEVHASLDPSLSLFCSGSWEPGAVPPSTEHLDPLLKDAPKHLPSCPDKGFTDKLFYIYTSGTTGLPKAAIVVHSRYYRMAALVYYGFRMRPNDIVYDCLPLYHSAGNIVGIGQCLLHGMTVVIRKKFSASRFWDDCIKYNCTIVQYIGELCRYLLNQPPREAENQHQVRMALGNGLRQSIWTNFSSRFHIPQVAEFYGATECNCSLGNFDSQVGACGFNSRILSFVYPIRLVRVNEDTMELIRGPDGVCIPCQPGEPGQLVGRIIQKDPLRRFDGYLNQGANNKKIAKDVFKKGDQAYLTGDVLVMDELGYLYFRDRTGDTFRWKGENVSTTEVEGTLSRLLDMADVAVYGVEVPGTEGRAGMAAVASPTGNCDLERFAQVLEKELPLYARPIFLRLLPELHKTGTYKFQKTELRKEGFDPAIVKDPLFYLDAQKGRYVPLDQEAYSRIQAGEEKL

These are yes or no findings as the source states them, for the method shown. Binding seen in cells or lysates may run through a third protein. Here binding means that the protein was enriched with, or labelled near, the bait; the list need not be complete. Tags and fused reporters may be left off the sequences shown.

The test has as its target T1, full-length mEmerald tagged Plin5 (perilipin 5) (UniProt Q8BVZ1).
T1 sequence: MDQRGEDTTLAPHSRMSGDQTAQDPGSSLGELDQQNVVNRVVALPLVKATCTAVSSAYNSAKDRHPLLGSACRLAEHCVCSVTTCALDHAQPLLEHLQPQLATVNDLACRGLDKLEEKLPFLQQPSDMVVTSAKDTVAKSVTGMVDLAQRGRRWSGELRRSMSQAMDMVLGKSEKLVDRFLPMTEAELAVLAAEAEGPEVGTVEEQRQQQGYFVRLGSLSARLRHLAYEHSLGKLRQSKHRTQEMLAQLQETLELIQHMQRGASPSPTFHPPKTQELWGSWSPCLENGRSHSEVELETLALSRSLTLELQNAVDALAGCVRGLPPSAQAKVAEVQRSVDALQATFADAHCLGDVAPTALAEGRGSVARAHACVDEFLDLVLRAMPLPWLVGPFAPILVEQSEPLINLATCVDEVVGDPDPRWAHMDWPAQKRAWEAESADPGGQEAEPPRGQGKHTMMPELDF
Put plainly: affinity purification with mass spectrometry.

Turning to “Fatp4 (ACSVL4), acyl-CoA synthetase (from UniProt Q6P1M0 1-643) (enzyme)”, the binding result is given as “binds”.

B1: Acot9 (enzyme, UniProt Q9Y305 22-439)
chain: LTQGPQNPKKQGIFHIHEVRDKLREIVGASTNWRDHVKAMEERKLLHSFLAKSQDGLPPRRMKDSYIEVLLPLGSEPELREKYLTVQNTVRFGRILEDLDSLGVLICYMHNKIHSAKMSPLSIVTALVDKIDMCKKSLSPEQDIKFSGHVSWVGKTSMEVKMQMFQLHGDEFCPVLDATFVMVARDSENKGPAFVNPLIPESPEEEELFRQGELNKGRRIAFSSTSLLKMAPSAEERTTIHEMFLSTLDPKTISFRSRVLPSNAVWMENSKLKSLEICHPQERNIFNRIFGGFLMRKAYELAWATACSFGGSRPFVVAVDDIMFQKPVEVGSLLFLSSQVCFTQNNYIQVRVHSEVASLQEKQHTTTNVFHFTFMSEKEVPLVFPKTYGESMLYLDGQRHFNSMSGPATLRKDYLVEP
Consider B1, for which the binding result is “binds”.
